Assay results from the supplement of paper PMC12067093, “Discovery and optimisation of a covalent ligand for TRIM25 and its application to targeted protein ubiquitination” (Chemical Science, 2025).
This is one part of the list.

Target: T1, TRMT12_Q53H54_444_SYAPHVDHIVLDLECCPCPSVG (UniProt Q53H54)
T1 sequence (whole entry): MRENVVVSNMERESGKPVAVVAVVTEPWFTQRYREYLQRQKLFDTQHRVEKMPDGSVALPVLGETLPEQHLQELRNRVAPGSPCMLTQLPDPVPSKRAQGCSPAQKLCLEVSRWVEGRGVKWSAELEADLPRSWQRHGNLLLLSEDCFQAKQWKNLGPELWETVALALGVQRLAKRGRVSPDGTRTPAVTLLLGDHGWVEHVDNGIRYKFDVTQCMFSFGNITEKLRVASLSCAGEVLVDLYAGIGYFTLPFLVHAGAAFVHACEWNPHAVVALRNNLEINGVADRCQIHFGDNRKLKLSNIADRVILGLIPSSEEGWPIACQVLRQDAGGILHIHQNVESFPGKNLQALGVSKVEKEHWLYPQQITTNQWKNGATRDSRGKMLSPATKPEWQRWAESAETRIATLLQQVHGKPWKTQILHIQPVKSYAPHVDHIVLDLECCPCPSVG
Test: probe-labelled cysteine peptide fold change vs DMSO (competition) (log2 fold change); higher = less target engagement (more negative = stronger competition)
Conditions: THP-1, incubation time: 4 h
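Also: competitive chemoproteomic profiling in live THP-1 cells with an iodoacetamide desthiobiotin (IA-DTB) probe, comparing probe-labelled peptide intensities in compound-treated cells against DMSO-treated controls.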

With `CC1Cc2ccccc2N1C(=O)C1CCCN(C(=O)CCl)C1` (mixture of isomers) [TRIM25 ligand 11 (diastereomer mixture)] as the compound, how does the “probe-labelled cysteine peptide fold change” value (10 µM) read?
Its value is -0.0822.

And the “probe-labelled cysteine peptide fold change” value (50 µM)?
The value was 0.0539.
